In PubChem BioAssay AID2685 (National Center for Advancing Translational Sciences (NCATS), 2010):
The other results are listed elsewhere or left out. Shown are side measurements of this screen, not its main read-out; they come without a call. Compounds called inactive in the main read-out are mostly missing here. Words in brackets tell the shape of the fitted curve; partial curves, single points and poor fits give uncertain potencies.

Assay: qHTS Assay for Lipid Storage Modulators in Drosophila S3 Cells;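 on cell number change: cells counted by Cell Tracker Red CMTPX staining in the red channel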
Conditions: BODIPY lipid droplet fluorescence, 18-24 h; for cell number change: measured here: cell count max response, cells fed with added oleic acid
Method in brief: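 Drosophila S3 cells got compounds at several concentrations plus oleic acid (400 uM solution). Laser-scanning cytometry with 488 nm excitation read lipid droplets at 500-530 nm and cells at 575-640 nm. Percent activity was relative to 20 uM Triacsin C.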

[1] = measured here: cell number channel AC50, cells fed with added oleic acid
[2] = measured here: lipid fluorescence (Fed channel) AC50, cells fed with added oleic acid

## CCN(CC)CCn1c2c(c(SCC(=O)Nc3cccc4ccccc34)nc1=O)CCC2
  cell number change: -25%
[1]
  AC50: 3.26 µM [falling, single point]

## CCOC(=O)N1CCN(C(=O)CCCn2c(=S)[nH]c3ccccc3c2=O)CC1
  cell number change: -41.3%
[1]
  AC50: 5.8 µM [falling, full curve]
[2]
  AC50: 20.6 µM [falling, partial curve]

## CSc1ccccc1OCc1cc(C(=O)NC2CCc3ccccc32)no1 (stereo unspecified)
  cell number change: 11.5%
[2]
  AC50: 6.51 µM [rising, single point]

## CCCCOC(=O)CSc1nc(N)c(C#N)c(-c2ccc(OC)cc2)c1C#N
  cell number change: 1.64%
[2]
  AC50: 29.1 µM [rising, single point]

## O=C(Cn1cc(Cl)ccc1=O)c1ccc(Cl)cc1
  cell number change: -2.27%

## COc1nc(N(C)C)nc(N(OC)S(=O)(=O)c2ccccc2Cl)n1
  cell number change: -9.74%

## O=C(COC(=O)Cc1c(F)cccc1Cl)NC(=O)c1ccccc1
[2]
  AC50: 14.6 µM [falling, partial curve]

## COc1ccc(C2=NOC(C(=O)NCCN3CCOCC3)C2)cc1 (stereo unspecified)
  cell number change: 12.6%

## COc1ccc(CSc2nnnn2C)cc1F
  cell number change: -12.6%
[2]
  AC50: 18.4 µM [falling, single point]

## CCCC(=O)NC(c1ccc(OC)cc1)c1ccc2cccnc2c1O (stereo unspecified)
  cell number change: -31.6%

## CN(C)CCCNC(=O)C(=O)Nc1ccc2c(c1)N(S(=O)(=O)c1cccs1)CCC2
  cell number change: 92.9%
[1]
  AC50: 29.1 µM [rising, single point]

## CCOc1ccc(Cl)cc1S(=O)(=O)N1CCC(C(=O)NCc2ccco2)CC1
  cell number change: 5.04%
[2]
  AC50: 18.4 µM [rising, single point]

## O=C(CSC(=S)N1CCCC1)N(Cc1nnc(-c2ccccc2Cl)o1)C1CC1
  cell number change: -15.3%

## COc1ccccc1CCNS(=O)(=O)c1cn(C)c(=O)n(C)c1=O
  cell number change: -29.4%
[2]
  AC50: 14.6 µM [falling, partial curve]

## Cc1ccc(CCC(=O)Nc2ccc(Cl)cc2)o1
  cell number change: -3.81%
[2]
  AC50: 0.651 µM [rising, single point]

## Cc1c2ccccc2nc2c(F)c(NC(C)C)c(F)c(F)c12
[2]
  AC50: 23.1 µM [falling, partial curve]

## CC(OC(=O)/C=C/c1ccccc1)C(=O)Nc1ccc2c(c1)OCCO2 (stereo unspecified)
  cell number change: -27.1%
[2]
  AC50: 16.4 µM [falling, single point]

## Cc1c(NC(=O)OCc2ccccc2)c(=O)n(-c2ccccc2)n1C
  cell number change: -25%
[1]
  AC50: 0.146 µM [falling, full curve, poor fit]
[2]
  AC50: 0.82 µM [falling, full curve, poor fit]

## COc1ccc(C(CC(=O)c2ccc(C)cc2)Nc2ccc([N+](=O)[O-])cc2)cc1 (stereo unspecified)
  cell number change: 14.8%
[2]
  AC50: 0.00517 µM [rising, full curve, poor fit]

## COc1cc([N+](=O)[O-])ccc1-c1ccc(/C=N\n2cnnc2)o1
  cell number change: 62.7%
[1]
  AC50: 25.9 µM [rising, single point]

## CCOC(=O)C1CCN(C(=O)c2ccc3c(c2)S(=O)(=O)c2ccccc2C3=O)CC1
  cell number change: 10.3%
[1]
  AC50: 6.51 µM [rising, single point]
[2]
  AC50: 0.116 µM [rising, single point]

## COc1ccc(-c2cc(=O)oc3cc(OCC(=O)N4CCOCC4)ccc23)cc1
  cell number change: 11.8%

## CN(Cc1nccs1)C(=O)c1ccc2nc(Cc3ccccc3F)oc2c1
  cell number change: -7.03%

## COCCCNCCCCSc1ccc(Cl)cc1
  cell number change: -68.3%
[1]
  AC50: 32.6 µM [falling, single point]
[2]
  AC50: 0.184 µM [falling, full curve, poor fit]

## N#C/C=C/N1CCN(C(=O)c2ccco2)CC1
  cell number change: -29.4%
[2]
  AC50: 0.0146 µM [falling, full curve, poor fit]

## CCCCn1c(N)c(NCCC)c(=O)[nH]c1=O
  cell number change: -6.68%
[1]
  AC50: 1.64 µM [falling, single point]
[2]
  AC50: 13 µM [rising, single point]

## CCC(C)(NC(=O)c1cccc(N2C(=O)CSC2c2ccccc2)c1)C(=O)Nc1ccccc1C (stereo unspecified)
  cell number change: 8.37%

## O=C(NNC(=O)c1ccc(Br)o1)c1csc(N2CCOCC2)n1
  cell number change: -38.4%
[1]
  AC50: 1.84 µM [falling, full curve, poor fit]
[2]
  AC50: 1.64 µM [falling, full curve]

## Cn1nnc2c(C(N)=O)ncn2c1=O
  cell number change: 44.8%
[1]
  AC50: 29.1 µM [rising, single point]
[2]
  AC50: 29.1 µM [rising, single point]

## COc1ccc(/C=C/C(=O)N[C@@H](C)C(=O)O)cc1
  cell number change: -17%
[2]
  AC50: 0.461 µM [falling, full curve]

## Cc1cc(Cl)ccc1OCC(=O)NCCOc1nc(N2CCOCC2)nc(N2CCOCC2)n1
  cell number change: -32.6%
[1]
  AC50: 29.1 µM [falling, single point]

## O=C(Nc1ccc(-c2cccc(F)c2)cc1)C1CCCN(Cc2ccccn2)C1 (stereo unspecified)
  cell number change: -17.8%
[1]
  AC50: 0.058 µM [rising, single point]
[2]
  AC50: 29.1 µM [falling, single point]

## COc1ccc(CNC(=O)CN(Cc2ccccc2)C(=O)CCC(=O)Nc2ccccn2)cc1
  cell number change: 14.8%
[2]
  AC50: 6.51 µM [rising, single point]

## O=C(Cc1ccc(S(=O)(=O)N2CCOCC2)s1)Oc1ccc(F)cc1
  cell number change: 100%
[1]
  AC50: 29.1 µM [rising, single point]

## CCOC(=O)C(C)Oc1cccc2c(=O)n(CC(=O)Nc3ccc4c(c3)OCCO4)ccc12 (stereo unspecified)
  cell number change: -34.7%

## O=C(CCC(=O)NNC(=O)c1ccc(Cl)cc1Cl)NCc1ccccc1
  cell number change: 12%
[1]
  AC50: 2.06 µM [rising, partial curve, poor fit]
[2]
  AC50: 1.64 µM [rising, partial curve, poor fit]

## CC(CNc1ccc([N+](=O)[O-])cc1)NC(=O)c1ccccc1Br (stereo unspecified)
  cell number change: 58.3%
[1]
  AC50: 29.1 µM [rising, single point]

## Cc1cc(N2CCC(C)CC2)n2ncc(-c3ccccc3)c2n1
  cell number change: 30.3%
[1]
  AC50: 29.1 µM [rising, single point]

## CCCNC(=O)C(Cc1ccccc1F)NC(=O)c1ccc(C#N)cc1 (stereo unspecified)
  cell number change: -10%
[2]
  AC50: 32.6 µM [rising, single point]
